Results deposited as PubChem BioAssay AID1259254 (NCATS, 2017)

Assay: 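Finding genes that stop cells copying their DNA twice in one cycle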 (primary screen)
System: human HCT116 colorectal cancer cells
Reagents: single siRNA against human genes
Duration: 3 days
Measurement: 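Nuclei stained with Hoechst and imaged; cell-cycle phase assigned by DNA content; G2 share scaled per plate, non-targeting siRNA 0%, GMNN siRNA 100%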
Scale: G2 robust z-score: higher = more G2 cells, more excess DNA replication
Hit rule: 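An siRNA counts as active if its G2 robust z-score lies at least 5 MADs above the screen median; here such calls match roughly 38% of GMNN control or more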
Shown is one part, drawn at random, of about 59,000 reagents. Of all reagents, about 1,550 (2.6%) got an active call. 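G2 share is only a proxy for re-replication; each gene was hit by three separate siRNAs, and active genes were retested.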 The numbers tell different reagents against one gene apart. Not all columns of the deposit are shown. Not stated in the record: the amount of reagent.

With knock-down of NCOR1P1 (GeneID 149934) #1, the screen gave G2 robust z-score -0.431; inactive.
NCOR1P1 (GeneID 149934) #2 scored G2 robust z-score -0.131; inactive.
NCOR1P1 (GeneID 149934) #3 gave G2 robust z-score 1.78; inactive.
Knock-down of C19orf81 (GeneID 342918) #1 came out at: G2 robust z-score 1.62; inactive.
Depletion of C19orf81 (GeneID 342918) #2 gave: G2 robust z-score -0.0532; inactive.
After knock-down of C19orf81 (GeneID 342918) #3, the record shows G2 robust z-score 0.138; inactive.
Against CD207 (GeneID 50489) #1, the values are G2 robust z-score 1.58; inactive.
Silencing of CD207 (GeneID 50489) #2 resulted in: G2 robust z-score 0.158; inactive.
CD207 (GeneID 50489) #3 gave G2 robust z-score 2.9; inactive.
With knock-down of PIK3IP1 (GeneID 113791) #1 the results were G2 robust z-score -0.228; inactive.
PIK3IP1 (GeneID 113791) #2 gave G2 robust z-score 3.02; inactive.
PIK3IP1 (GeneID 113791) #3 gave G2 robust z-score -0.344; inactive.
Depletion of SMARCA1 (GeneID 6594) #1 gave: G2 robust z-score -0.169; inactive.
SMARCA1 (GeneID 6594) #2 scored G2 robust z-score 0.604; inactive.
For SMARCA1 (GeneID 6594) #3, the entry reads G2 robust z-score 2.67; inactive.
Silencing of HMBS (GeneID 3145) #1 came out at: G2 robust z-score 0.266; inactive.
Knock-down of HMBS (GeneID 3145) #2 came out at: G2 robust z-score 0.0578; inactive.
HMBS (GeneID 3145) #3 scored G2 robust z-score 5.77; active.
Against LINC02915 (GeneID 400360) #1, the entry reads G2 robust z-score -0.274; inactive.
For LINC02915 (GeneID 400360) #2, the values are G2 robust z-score 0.558; inactive.
For LINC02915 (GeneID 400360) #3 the deposit lists G2 robust z-score -1.06; inactive.
For YY1 (GeneID 7528) #1, the values are G2 robust z-score 1.82; inactive.
After knock-down of YY1 (GeneID 7528) #2, the record shows G2 robust z-score 2.77; inactive.
For YY1 (GeneID 7528) #3 the deposit lists G2 robust z-score 1.59; inactive.

Already shown: 2 of the entries above.
PIK3IP1 (GeneID 113791) #1: G2 robust z-score = -0.228; call = inactive
PIK3IP1 (GeneID 113791) #2: G2 robust z-score = 3.02; call = inactive
